Measurements published in the supplement of paper PMC8728848.
The other results are listed elsewhere or left out.

What was measured:
Test in all cases: glycan array binding signal (z-score within array); higher = stronger binding
Conditions in all cases: glycan notation: IUPAC condensed, linker removed
[1] = target: Neu5Ac(a2-6)Gal(b1-4)GlcNAc(b1-3)Gal(b1-4)GlcNAc(b1-3)Gal(b1-4)GlcNAc(b1-2)Man(a1-3)[Neu5Ac(a2-6)Gal(b1-4)GlcNAc(b1-3)Gal(b1-4)GlcNAc(b1-3)Gal(b1-4)GlcNAc(b1-2)Man(a1-6)]GalNAc
Method in brief: (§1)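 Glycan array binding is given as a within-array Z-score, which can be read as non-binding when negative. The arrays, 3228 of them, came from the Consortium for Functional Glycomics database and were retained only where the protein sequence was available. Z-scores were averaged across arrays of the same protein sequence at different concentrations or buffers and across linkers.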

[2] = target: Neu5Ac(a2-6)Gal(b1-4)GlcNAc(b1-3)Gal(b1-4)GlcNAc(b1-3)GalNAc
Method in brief: as §1

[3] = target: Neu5Ac(a2-6)Gal(b1-4)GlcNAc(b1-3)Gal(b1-4)GlcNAc(b1-3)[Neu5Ac(a2-6)Gal(b1-4)GlcNAc(b1-3)Gal(b1-4)GlcNAc(b1-6)]GalNAc
Method in brief: as §1

[4] = target: Neu5Ac(a2-6)Gal(b1-4)GlcNAc(b1-3)Gal(b1-4)GlcNAc(b1-6)[Gal(b1-3)]GalNAc
Method in brief: as §1

[5] = target: Neu5Ac(a2-6)Gal(b1-4)GlcNAc(b1-3)Gal(b1-4)[Fuc(a1-3)]GlcNAc(b1-3)Gal(b1-4)[Fuc(a1-3)]GlcNAc
Method in brief: as §1

[6] = target: Neu5Ac(a2-6)Gal(b1-4)GlcNAc(b1-3)GalNAc
Method in brief: as §1

[7] = target: Neu5Ac(a2-6)Gal(b1-4)GlcNAc(b1-3)[Neu5Ac(a2-6)Gal(b1-4)GlcNAc(b1-6)]GalNAc
Method in brief: as §1

[8] = target: Neu5Ac(a2-6)Gal(b1-4)GlcNAc(b1-6)GalNAc
Method in brief: as §1

[9] = target: Neu5Ac(a2-6)Gal(b1-4)GlcNAc(b1-6)[Gal(b1-3)GlcNAc(b1-3)]Gal(b1-4)Glc
Method in brief: as §1

[10] = target: Neu5Ac(a2-6)Gal(b1-4)GlcNAc(b1-6)[Gal(b1-3)]GalNAc
Method in brief: as §1

[11] = target: Neu5Ac(a2-6)Gal(b1-4)GlcNAc6S
Method in brief: as §1

[12] = target: Neu5Ac(a2-6)GalNAc
Method in brief: as §1

[13] = target: Neu5Ac(a2-6)GalNAc(b1-4)GlcNAc
Method in brief: as §1

[14] = target: Neu5Ac(a2-6)GalNAc(b1-4)GlcNAc6S
Method in brief: as §1

[15] = target: Neu5Ac(a2-6)GlcNAc(b1-4)GlcNAc
Method in brief: as §1

[16] = target: Neu5Ac(a2-6)GlcNAc(b1-4)GlcNAc(b1-4)GlcNAc
Method in brief: as §1

[17] = target: Neu5Ac(a2-8)Neu5Ac
Method in brief: as §1

[18] = target: Neu5Ac(a2-8)Neu5Ac(a2-3)Gal(b1-3)GalNAc(b1-4)[Neu5Ac(a2-3)]Gal(b1-4)Glc
Method in brief: as §1

[19] = target: Neu5Ac(a2-8)Neu5Ac(a2-3)Gal(b1-3)GalNAc(b1-4)[Neu5Ac(a2-8)Neu5Ac(a2-3)]Gal(b1-4)Glc
Method in brief: as §1

[20] = target: Neu5Ac(a2-8)Neu5Ac(a2-3)Gal(b1-4)Glc
Method in brief: as §1

[21] = target: Neu5Ac(a2-8)Neu5Ac(a2-3)Gal(b1-4)GlcNAc
Method in brief: as §1

[22] = target: Neu5Ac(a2-8)Neu5Ac(a2-3)[Gal(b1-3)GalNAc(b1-4)]Gal(b1-4)Glc
Method in brief: as §1

[23] = target: Neu5Ac(a2-8)Neu5Ac(a2-3)[GalNAc(b1-4)]Gal(b1-4)Glc
Method in brief: as §1

[24] = target: Neu5Ac(a2-8)Neu5Ac(a2-8)Neu5Ac
Method in brief: as §1

[25] = target: Neu5Ac(a2-8)Neu5Ac(a2-8)Neu5Ac(a2-3)Gal(b1-4)Glc
Method in brief: as §1

[26] = target: Neu5Ac(a2-8)Neu5Ac(a2-8)Neu5Ac(a2-3)[Gal(b1-3)GalNAc(b1-4)]Gal(b1-4)Glc
Method in brief: as §1

[27] = target: Neu5Ac(a2-8)Neu5Ac(a2-8)Neu5Ac(a2-3)[GalNAc(b1-4)]Gal(b1-4)Glc
Method in brief: as §1

[28] = target: Neu5Ac(a2-8)Neu5Ac(a2-8)Neu5Ac(a2-8)Neu5Ac(a2-3)[GalNAc(b1-4)]Gal(b1-4)Glc
Method in brief: as §1

[29] = target: Neu5Ac(a2-8)Neu5Gc(a2-3)Gal(b1-4)GlcNAc
Method in brief: as §1

[30] = target: Neu5Ac(b2-6)Gal(b1-4)GlcNAc
Method in brief: as §1

[31] = target: Neu5Ac(b2-6)GalNAc
Method in brief: as §1

[32] = target: Neu5Ac9Ac(a2-3)Gal(b1-3)GlcNAc
Method in brief: as §1

[33] = target: Neu5Ac9Ac(a2-3)Gal(b1-4)GlcNAc
Method in brief: as §1

[34] = target: Neu5Ac9Ac(a2-6)Gal(b1-4)GlcNAc
Method in brief: as §1

[35] = target: Neu5Gc(a2-3)Gal(b1-3)GlcNAc
Method in brief: as §1

[36] = target: Neu5Gc(a2-3)Gal(b1-3)[Fuc(a1-4)]GlcNAc
Method in brief: as §1

[37] = target: Neu5Gc(a2-3)Gal(b1-4)Glc
Method in brief: as §1

[38] = target: Neu5Gc(a2-3)Gal(b1-4)GlcNAc
Method in brief: as §1

[39] = target: Neu5Gc(a2-3)Gal(b1-4)GlcNAc(b1-3)Gal(b1-4)GlcNAc(b1-2)Man(a1-3)[Neu5Gc(a2-3)Gal(b1-4)GlcNAc(b1-3)Gal(b1-4)GlcNAc(b1-2)Man(a1-6)]Man(b1-4)GlcNAc(b1-4)GlcNAc
Method in brief: as §1

[40] = target: Neu5Gc(a2-3)Gal(b1-4)[Fuc(a1-3)]GlcNAc
Method in brief: as §1

[41] = target: Neu5Gc(a2-6)Gal(b1-4)GlcNAc
Method in brief: as §1

[42] = target: Neu5Gc(a2-6)GalNAc
Method in brief: as §1

[43] = target: Neu5Gc(a2-8)Neu5Ac(a2-3)Gal(b1-4)GlcNAc
Method in brief: as §1

[44] = target: Neu5Gc(a2-8)Neu5Gc(a2-3)Gal(b1-4)GlcNAc
Method in brief: as §1

[45] = target: Neu5Gc(a2-8)Neu5Gc(a2-3)Gal(b1-4)GlcNAc(b1-3)Gal(b1-4)GlcNAc
Method in brief: as §1

[46] = target: Neu5Gc(a2-8)Neu5Gc(a2-6)Gal(b1-4)GlcNAc
Method in brief: as §1

[47] = target: Neu5Gc(b2-6)Gal(b1-4)GlcNAc
Method in brief: as §1

B1: LlpA (Arthrobacter sp) (protein)
chain: MGSSHHHHHHSSGLVPRGSHMTLHPETALRPGAAATSPNSRYRLLYQTDGNLVLYGPDGPLWDSGTNGHGAGACIMQADGNLVLYGPNDEYVWDTETDNNPGSRLVIQDDGNAVIYRPDGSPLWATETCQPPGSADSHVLQSGSTLTPTHGIRSANGLYGLLYQTDGNLVFYGPDGPLWDSGTNGRGAGACIMQPDGNLVLYGPHDEYVWDTETDNNPGSRLVIQDDGNAVIYRPDGNPTWVTGTH
glycan array binding signal (z-score) [1]: 2.47 | glycan array binding signal (z-score) [2]: 0.214 | glycan array binding signal (z-score) [3]: 0.568 | glycan array binding signal (z-score) [4]: -0.279 | glycan array binding signal (z-score) [5]: 0.982 | glycan array binding signal (z-score) [6]: -0.34 | glycan array binding signal (z-score) [7]: 0.482 | glycan array binding signal (z-score) [8]: -0.174 | glycan array binding signal (z-score) [9]: -0.86 | glycan array binding signal (z-score) [10]: -0.378 | glycan array binding signal (z-score) [11]: -0.463 | glycan array binding signal (z-score) [12]: -1.44 | glycan array binding signal (z-score) [13]: -1.55 | glycan array binding signal (z-score) [14]: -0.585 | glycan array binding signal (z-score) [15]: -0.282 | glycan array binding signal (z-score) [16]: 0.042 | glycan array binding signal (z-score) [17]: 0.238 | glycan array binding signal (z-score) [18]: -0.983 | glycan array binding signal (z-score) [19]: 1.98 | glycan array binding signal (z-score) [20]: -0.46 | glycan array binding signal (z-score) [21]: -1.88 | glycan array binding signal (z-score) [22]: 0.321 | glycan array binding signal (z-score) [23]: 1.24 | glycan array binding signal (z-score) [24]: 0.275 | glycan array binding signal (z-score) [25]: 1.1 | glycan array binding signal (z-score) [26]: -0.934 | glycan array binding signal (z-score) [27]: 0.267 | glycan array binding signal (z-score) [28]: 0.355 | glycan array binding signal (z-score) [29]: -1.81 | glycan array binding signal (z-score) [30]: -0.113 | glycan array binding signal (z-score) [31]: -0.109 | glycan array binding signal (z-score) [32]: -0.491 | glycan array binding signal (z-score) [33]: -1.33 | glycan array binding signal (z-score) [34]: 0.62 | glycan array binding signal (z-score) [35]: -0.252 | glycan array binding signal (z-score) [36]: -0.273 | glycan array binding signal (z-score) [37]: -0.925 | glycan array binding signal (z-score) [38]: -0.467 | glycan array binding signal (z-score) [39]: -0.31 | glycan array binding signal (z-score) [40]: -0.541 | glycan array binding signal (z-score) [41]: -0.005 | glycan array binding signal (z-score) [42]: 0.635 | glycan array binding signal (z-score) [43]: -0.504 | glycan array binding signal (z-score) [44]: -0.336 | glycan array binding signal (z-score) [45]: -1.14 | glycan array binding signal (z-score) [46]: 0.339 | glycan array binding signal (z-score) [47]: 0.561
